Earlier results in US20120294937A1, “NEW PHARMACEUTICAL DOSAGE FORM FOR THE TREATMENT OF GASTRIC ACID-RELATED DISORDERS” (NOVARTIS AG, priority 2009, published 2012).
At least one structure is not confirmed: it was looked up by name or label, or the drawing left a doubt.

Tested on: stomach acid pH

COc1ccc2[nH]c([S+]([O-])Cc3ncc(C)c(OC)c3C)nc2c1 (centres unmarked) [omeprazole]
time stomach acid controlled at pH>4 (Day 1, clinical setting): 27 % of the day
percentage of time controlling stomach acid (Day 8, steady state for omeprazole reached, clinical setting): 78 % of the day
